Data as given in PubChem BioAssay AID1259308 (NCATS, 2017).
In all, the deposit lists about 59,000 reagents; this is a part drawn at random. Over the whole deposit, about 1,510 (2.6%) got an active call. 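Calls use total luciferase alone and ignore viability, so some active siRNAs may act by altering cell number.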 Reagents against one gene are numbered here. Not all columns of the deposit are shown.

Assay: 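Genes whose loss raises luciferase production in HEK293 cells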 (primary screen)
Cells: human HEK293 embryonic kidney cells stably expressing firefly luciferase (HEK-CMV-Luc2-Hygro)
Reagents: single siRNA against human genes, 0.8 pmol siRNA per well
Duration: 72 h
Measurement: 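Luciferase light (ONE-Glo) measured on one replicate plate set and viability (CellTiter-Glo) on the other, scaled to a negative control siRNA, with robust z-scores and luciferase per cell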
Direction: total luciferase, z-score and total luciferase, % of control: higher = more reporter protein produced
Call rule: 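An siRNA counts as active if its total luciferase robust z-score exceeds 3; genes with two or more such siRNAs out of three were retested with fresh siRNAs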
Calls: active = raised luciferase; inactive = no rise

Knock-down of ECHS1 (GeneID 1892) #1 came out at: total luciferase, z-score 0.765; total luciferase, % of control 97.1; inactive. After knock-down of ECHS1 (GeneID 1892) #2, the screen gave total luciferase, z-score 0.0249; total luciferase, % of control 82.4; inactive. ECHS1 (GeneID 1892) #3 scored total luciferase, z-score -0.203; total luciferase, % of control 77.9; inactive. COL9A1 (GeneID 1297) #1 gave total luciferase, z-score -1.61; total luciferase, % of control 49.9; inactive. With knock-down of COL9A1 (GeneID 1297) #2, the record shows total luciferase, z-score 3.09; total luciferase, % of control 143; active. Against COL9A1 (GeneID 1297) #3, the entry reads total luciferase, z-score 0.267; total luciferase, % of control 87.2; inactive.

With knock-down of EHD3 (GeneID 30845) #1, the screen gave total luciferase, z-score 2.27; total luciferase, % of control 127; inactive. EHD3 (GeneID 30845) #2 showed total luciferase, z-score -0.79; total luciferase, % of control 66.2; inactive. For EHD3 (GeneID 30845) #3, the values are total luciferase, z-score 0.433; total luciferase, % of control 90.5; inactive. After knock-down of SNCAIP (GeneID 9627) #1, the record shows total luciferase, z-score 1.53; total luciferase, % of control 112; inactive. Silencing of SNCAIP (GeneID 9627) #2 came out at: total luciferase, z-score 0.525; total luciferase, % of control 92.3; inactive. Depletion of SNCAIP (GeneID 9627) #3 gave: total luciferase, z-score 4.74; total luciferase, % of control 176; active.

Reformatted: results already given
{"gene": "SNCAIP (GeneID 9627)", "reagent no.": 1, "total luciferase, z-score": 1.53, "total luciferase, % of control": 112, "activity call": "inactive"}
{"gene": "SNCAIP (GeneID 9627)", "reagent no.": 2, "total luciferase, z-score": 0.525, "total luciferase, % of control": 92.3, "activity call": "inactive"}
